Test results as given in PubChem BioAssay AID2685 (National Center for Advancing Translational Sciences (NCATS), 2010).
The list shows a part of the results. Shown are side measurements of this screen, not its main read-out; they come without a call. Compounds called inactive in the main read-out are mostly missing here. Words in brackets tell the shape of the fitted curve; partial curves, single points and poor fits give uncertain potencies.

Assay: qHTS Assay for Lipid Storage Modulators in Drosophila S3 Cells;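 for cell number change: cells counted by Cell Tracker Red CMTPX staining in the red channel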
Conditions: BODIPY lipid droplet fluorescence, 18-24 h; for cell number change: measured here: cell count max response, cells fed with added oleic acid
Procedure, shortened: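 Laser-scanning cytometry quantifies lipid droplet accumulation (500–530 nm total intensity; droplet/cell object ratio) in oleic acid-fed (400 uM added) Drosophila S3 cells treated with a concentration series. 20 uM Triacsin C defined 100% inhibition.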

[1] = measured here: lipid fluorescence (Fed channel) AC50, cells fed with added oleic acid
[2] = measured here: cell number channel AC50, cells fed with added oleic acid

Row | SMILES | cell number change | AC50 [1] | AC50 [2]
1 | COc1ccc(CC(=O)NNC(=O)COc2ccc3ccccc3c2)cc1 | -10.6% | 0.326 µM [rising, full curve, poor fit] | 
2 | COc1ccc([N+](=O)[O-])cc1NC(=O)N(C)Cc1ccco1 | -0.223% | 29.1 µM [falling, single point] | 
3 | Clc1ccc(-c2cn3cccnc3n2)cc1 |  |  | 2.31 µM [rising, single point]
4 | CC(C)=C1C2CCC1C(C(=O)Nc1sc(C)c(-c3ccc(C(C)C)cc3)c1C(N)=O)C2C(=O)O (centres undefined) | -52.6% | 4.11 µM [rising, partial curve] | 20.6 µM [falling, partial curve, poor fit]
5 | O/N=C/C1=C(Cl)c2ccccc2CC1 | 2.57% |  | 
6 | O=C(CSc1ncnc2ccccc12)Nc1cc(S(=O)(=O)N2CCCCC2)ccc1Cl | -11.6% | 0.92 µM [rising, full curve] | 4.61 µM [rising, single point]
7 | Cc1cc2nc(SCCN3CCCC3)[nH]c2cc1C | -30.7% |  | 32.6 µM [falling, single point]
8 | O=C(/C=C/c1ccccc1)OCCCN=C1NS(=O)(=O)c2ccccc21 | -2.02% | 8.2 µM [falling, single point] | 
9 | C/C(CCc1ccc2c(c1)OCO2)=N\NC(=O)c1ccccc1Br | 18.8% | 6.51 µM [rising, single point] | 4.61 µM [rising, single point]
10 | O=C(Nc1ccc2c(c1)OCO2)C1CCCN(c2nc3ccccc3s2)C1 (centres undefined) | -8.03% |  | 
11 | Cc1ccccc1S(=O)(=O)Cc1ccc(C(=O)NC2CCCC2)o1 | 64.2% |  | 16.4 µM [rising, single point]
12 | CNc1nc(Oc2ccccc2C(=O)OC)nc(SC)n1 | 2.99% | 11.6 µM [rising, single point] | 
13 | COc1ccc(C(c2c(C)n(C)n(-c3ccccc3)c2=O)c2c(C)n(C)n(-c3ccccc3)c2=O)cc1O |  | 29.1 µM [falling, single point] | 
14 | CCn1cc(C(=O)O)c(=O)c2cc(F)c(N3CCN(C(=S)NC(=O)c4ccc(OC)cc4)CC3)cc21 | 10.3% | 6.51 µM [rising, single point] | 
15 | Cc1oc2c(C)c(O)ccc2c(=O)c1-c1cnn(-c2ccccc2)c1 | -39.7% | 29.1 µM [falling, single point] | 29.1 µM [falling, single point]
16 | CC(C)=C1C(=O)NN(c2ccc(F)c(Cl)c2)C1=O | 37.5% |  | 20.6 µM [rising, single point]
17 | CCn1c(=O)c2cc(C(=O)NCCN3CCOCC3)sc2c2ccccc21 | -22.2% | 5.8 µM [falling, partial curve] | 
18 | COc1ccccc1NC(=O)CN1CCN(C(=O)C2CCCO2)CC1 (centres undefined) | -3.04% |  | 
19 | C/C(=N\NC(=O)c1ccc(N2CCCC2=O)cc1)c1ccc(O)cc1O | -23.8% |  | 
20 | CC(C)CN(C(=O)COC(=O)c1ccc2ccccc2c1)c1c(N)n(Cc2ccccc2)c(=O)[nH]c1=O | 63.9% |  | 3.66 µM [rising, full curve]

Of the compounds above, these contain an aryl thioether with sulfur outside any ring.
Row | SMILES | cell number change | AC50 [1] | AC50 [2]
6 | O=C(CSc1ncnc2ccccc12)Nc1cc(S(=O)(=O)N2CCCCC2)ccc1Cl | -11.6% | 0.92 µM [rising, full curve] | 4.61 µM [rising, single point]
7 | Cc1cc2nc(SCCN3CCCC3)[nH]c2cc1C | -30.7% |  | 32.6 µM [falling, single point]
12 | CNc1nc(Oc2ccccc2C(=O)OC)nc(SC)n1 | 2.99% | 11.6 µM [rising, single point] | 

Further structures.

Row | SMILES | cell number change | AC50 [1] | AC50 [2]
21 | O=C1Nc2ccc(Br)cc2C1Cc1ccccc1F (centres undefined) | -33.5% | 29.1 µM [falling, single point] | 7.31 µM [falling, partial curve]
22 | CN1CCN(S(=O)(=O)c2ccc(NC(=S)NC(=O)c3ccccc3)cc2)CC1 | 35.5% | 1.84 µM [rising, full curve] | 0.651 µM [rising, full curve]
23 | CCSc1ccc([C@@H]2[C@@H]3C(=O)N(CC)C(=O)[C@@H]3[C@]3(C(=O)OC)CCCCN23)cc1OC | -19.9% | 0.58 µM [falling, full curve, poor fit] | 
24 | CSC1=NC(C(Cl)(Cl)Cl)N=C(c2ccccc2)N1 (centres undefined) | 7.82% |  | 
25 | O=c1c(Cc2ccc(F)cc2)c(O)ccn1CCCN1CCOCC1 | -27.4% | 35.5 µM [falling, single point] | 
26 | COc1ccc([C@H]2CC(=O)C=C(c3cc(C=O)ccc3OC)C2)cc1OC | -8.66% | 4.11 µM [falling, single point] | 
27 | O=C(CCN1C(=O)C2C3CCC(C3)C2C1=O)Nc1ccc(Br)cc1 (centres undefined) | -1.34% | 2.31 µM [rising, single point] | 6.51 µM [rising, partial curve, poor fit]
28 | CC1CCN(CC(=O)N2CCCc3c2c(=O)oc2ccc(OCc4ccccc4)cc32)CC1 | 5.18% | 29.1 µM [rising, single point] | 
29 | CCOC(=O)c1cn(Cc2ccc(Cl)cc2Cl)c2cc(C)nn2c1=O | -46.6% | 6.51 µM [falling, full curve] | 5.8 µM [falling, full curve]
30 | O=C(N1CCN(c2cccc(Cl)c2)CC1)C1(S(=O)(=O)c2ccc(Cl)cc2)CC1 |  | 3.26 µM [rising, single point] | 
31 | O=C(O)c1cc(NC(=O)c2ccccc2F)cc(NC(=O)c2ccccc2F)c1 | -19.5% | 0.731 µM [rising, single point] | 
32 | CCN1CCCC1CNC(=O)c1ccc2c(c1)N(Cc1ccccc1F)C(=O)c1ccccc1S2(=O)=O (centres undefined) | 36.6% |  | 29.1 µM [rising, single point]
33 | O=S1(=O)C=CC(Nc2cccc(Cl)c2)C1 (centres undefined) | -12.6% | 16.4 µM [falling, single point] | 
34 | CSc1ccccc1OCc1cc(C(=O)N2CCC(c3ccncc3)CC2)no1 | -35.2% | 8.2 µM [falling, partial curve] | 29.1 µM [falling, single point]
35 | CC1c2cc3c(cc2CCN1CC(=O)Nc1ccccc1)OCCCO3 (centres undefined) | -24.6% | 20.6 µM [falling, single point] | 
36 | COCC(C)OC(=O)/C(C#N)=C\c1coc2ccc(C)cc2c1=O (centres undefined) | 3.7% | 0.731 µM [falling, full curve] | 
37 | Cc1onc(-c2c(Cl)cccc2Cl)c1C(=O)N(C)Cc1ccccc1 | 36.8% | 6.51 µM [falling, single point] | 0.146 µM [rising, full curve, poor fit]
38 | COc1ccc(S(=O)(=O)n2nc(-c3ccc(Cl)cc3)cc2N)cc1OC | 3.43% | 0.517 µM [rising, full curve] | 
39 | C=C(C)c1nc(N)nc(N)n1 | -13.6% | 3.66 µM [falling, full curve] | 0.326 µM [falling, full curve, poor fit]
40 | COC(=O)/C=C1/N/C(=N\c2nc(C)cc(C)n2)N(c2ccccc2)C1=O |  |  | 6.51 µM [rising, single point]

Row | SMILES | cell number change | AC50 [1] | AC50 [2]
41 | CC1CCCC(C)N1CC(O)COCc1ccccc1 (centres undefined) | 22.9% | 0.651 µM [falling, single point] | 
42 | Cc1ccc(S(=O)(=O)Nc2cc(C(F)(F)F)ccc2N2CCOCC2)c(C)c1 | 31% | 14.6 µM [rising, partial curve] | 18.4 µM [rising, single point]
43 | O=C(CSCc1c(Cl)cccc1Cl)Nc1ccccc1-c1ccccc1 | -5.94% |  | 
44 | Cc1ccc(S(=O)(=O)N2CCOCCOCCOCCOCCOCC2)cc1 | 3.81% | 0.164 µM [falling, full curve, poor fit] | 
45 | Cc1cccc(NC(=O)c2cc(NC(=O)C3CCCCC3C(=O)O)ccc2Cl)n1 (centres undefined) | 6.61% | 29.1 µM [rising, single point] | 
46 | Cc1ccc(Cn2c(NC(=O)c3ccco3)nc3ccccc32)cc1 | -44.8% | 18.4 µM [falling, single point] | 32.6 µM [falling, single point]
47 | Nc1sccc1C(=O)c1ccc(Cl)cc1 | 162% | 6.51 µM [rising, single point] | 18.4 µM [rising, single point]
48 | COCCCNC(=O)COC(=O)c1ccc(-c2nc3ccccc3s2)s1 | -10.7% |  | 
49 | COc1ccc(S(=O)(=O)N2CCOCC2)cc1NC(=O)c1cc(C)oc1C | -3.75% |  | 
50 | Cc1ccc(SCC(=O)Nc2ccc(-c3nnc(-c4ccco4)o3)cc2)cc1 | -19.3% | 29.1 µM [falling, single point] | 
51 | Nc1ccc(C(=O)N2CCCC2)cc1CS(=O)(=O)c1ccc(Cl)cc1 | 52.1% | 5.17 µM [rising, full curve] | 5.17 µM [rising, full curve]
52 | O=C(NC(=S)Nc1ccc(F)c(Cl)c1)C1CC1 | -10.1% | 2.91 µM [rising, single point] | 
53 | CCOc1ccc(CCNC(=O)COC(=O)COc2ccc(Br)cc2)cc1OCC |  | 16.4 µM [rising, partial curve] | 
54 | CCOc1ccc(S(=O)(=O)N/N=C\c2ccc3c(c2)OCO3)cc1 | 13.8% | 3.26 µM [rising, single point] | 1.64 µM [rising, partial curve]
55 | O=C(CN1CCOCC1)Nc1ccccc1Sc1ccc(Cl)cc1 | -55.3% | 23.1 µM [falling, single point] | 18.4 µM [falling, single point]
56 | Cc1ccc(C)c(S(=O)(=O)NCCCc2ccccc2)c1 | 34.8% | 29.1 µM [rising, single point] | 
57 | COc1nonc1NC(=O)CSc1nc2ccccc2[nH]1 | -13.2% | 6.51 µM [falling, single point] | 
58 | NC(=O)CC(NC(=O)c1cccc(Br)c1)c1ccc(NC2CCN(Cc3ccccc3)CC2)c([N+](=O)[O-])c1 (centres undefined) | 18% |  | 
